Laboratory results taken from patent US12527762B2 (priority 2021, dated 2026).

System: ZR-75-1 hormone-positive breast cancer cell line
Assay: Luminescent cell viability assay (CellTiter glo), subtype-specific breast cancer cell lines
Assay type: cell-based
Conditions: Homo sapiens

SMILES: CC/C(=C(\c1ccccc1)c1ccc(OCCN(C)C)cc1)c1ccccc1 [Tamoxifen, reference compound]
- IC50: 9.2 µM
